Source: paper PMC10226250
These are yes or no findings as the source states them, for the method shown. Binding seen in cells or lysates may run through a third protein. Some results given as binding are weak or reduced against the parent protein; the word gives no strength.

Protein sequences, listed by entry. Tags and fused reporters are not part of them.
UniProt Q99KP6: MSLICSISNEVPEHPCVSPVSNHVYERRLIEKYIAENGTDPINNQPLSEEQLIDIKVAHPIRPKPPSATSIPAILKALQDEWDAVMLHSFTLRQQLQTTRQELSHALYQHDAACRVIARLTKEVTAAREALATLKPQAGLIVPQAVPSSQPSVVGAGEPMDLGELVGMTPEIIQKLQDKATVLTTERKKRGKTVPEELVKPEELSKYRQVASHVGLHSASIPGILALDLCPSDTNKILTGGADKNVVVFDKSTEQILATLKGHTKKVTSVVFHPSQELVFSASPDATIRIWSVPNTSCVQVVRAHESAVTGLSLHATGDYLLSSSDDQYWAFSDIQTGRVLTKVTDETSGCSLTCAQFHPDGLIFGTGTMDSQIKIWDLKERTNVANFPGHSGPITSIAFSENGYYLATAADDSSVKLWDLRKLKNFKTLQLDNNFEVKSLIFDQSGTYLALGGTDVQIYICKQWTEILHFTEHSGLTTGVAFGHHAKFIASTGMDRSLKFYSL
UniProt Q6A068: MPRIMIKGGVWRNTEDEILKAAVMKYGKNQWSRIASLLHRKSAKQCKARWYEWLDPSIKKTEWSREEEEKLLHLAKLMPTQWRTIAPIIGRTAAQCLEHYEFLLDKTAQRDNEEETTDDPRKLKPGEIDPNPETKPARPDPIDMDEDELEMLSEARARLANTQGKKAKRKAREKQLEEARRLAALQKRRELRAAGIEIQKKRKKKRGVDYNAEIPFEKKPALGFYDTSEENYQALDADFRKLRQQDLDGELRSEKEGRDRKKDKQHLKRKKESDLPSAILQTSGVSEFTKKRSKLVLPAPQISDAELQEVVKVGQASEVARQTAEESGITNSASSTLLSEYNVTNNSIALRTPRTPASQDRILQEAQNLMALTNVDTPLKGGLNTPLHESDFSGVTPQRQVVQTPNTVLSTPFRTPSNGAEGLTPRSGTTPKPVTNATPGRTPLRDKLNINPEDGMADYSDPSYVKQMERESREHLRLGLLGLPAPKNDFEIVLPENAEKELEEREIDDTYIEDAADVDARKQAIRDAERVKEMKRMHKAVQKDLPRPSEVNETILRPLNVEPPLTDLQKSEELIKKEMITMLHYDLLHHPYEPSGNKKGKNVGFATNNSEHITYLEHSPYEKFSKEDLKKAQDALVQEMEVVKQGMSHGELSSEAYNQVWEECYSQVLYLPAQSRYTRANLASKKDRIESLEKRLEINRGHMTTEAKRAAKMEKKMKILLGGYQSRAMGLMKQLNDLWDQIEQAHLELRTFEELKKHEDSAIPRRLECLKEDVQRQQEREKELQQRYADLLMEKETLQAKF

Molecular target: T1, Breast cancer amplified sequence 2 (BCAS2) (mouse (endogenous in ovary)) (UniProt Q9D287)
T1 sequence: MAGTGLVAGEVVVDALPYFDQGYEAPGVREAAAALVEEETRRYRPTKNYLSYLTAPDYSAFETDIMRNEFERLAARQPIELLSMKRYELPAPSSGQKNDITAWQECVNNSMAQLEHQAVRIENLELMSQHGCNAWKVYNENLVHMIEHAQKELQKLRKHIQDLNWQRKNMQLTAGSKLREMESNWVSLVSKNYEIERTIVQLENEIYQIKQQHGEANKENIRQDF
Test: co-IP; BCAS2 antibody (rabbit IgG as control) on BeyoMag Protein A beads; lysate of eight-day-old mouse ovaries adsorbed overnight at 4 °C; washed three times with TBST; immunoblot for BCAS2, PRP19 and CDC5L

binding	Substance
binds	PRP19 (from UniProt Q99KP6 1-504)
binds	CDC5L (from UniProt Q6A068 1-802)
